At least one peptide structure holds a part that was inferred or is arguable (an end, a ring closure or a residue).
Experiments:
Mch6 = molecular target: T1, Mch6 (Homo sapiens, UniProt P55211); assay: Kinetic parameters of bacterially expressed recombinant Mch6, continuous fluorometric assay; format: biochemical
T1 construct: 6His (C); made in house; host or cells: E. coli BL21(DE3), vector pET21b
T1 sequence (P55211 1-416): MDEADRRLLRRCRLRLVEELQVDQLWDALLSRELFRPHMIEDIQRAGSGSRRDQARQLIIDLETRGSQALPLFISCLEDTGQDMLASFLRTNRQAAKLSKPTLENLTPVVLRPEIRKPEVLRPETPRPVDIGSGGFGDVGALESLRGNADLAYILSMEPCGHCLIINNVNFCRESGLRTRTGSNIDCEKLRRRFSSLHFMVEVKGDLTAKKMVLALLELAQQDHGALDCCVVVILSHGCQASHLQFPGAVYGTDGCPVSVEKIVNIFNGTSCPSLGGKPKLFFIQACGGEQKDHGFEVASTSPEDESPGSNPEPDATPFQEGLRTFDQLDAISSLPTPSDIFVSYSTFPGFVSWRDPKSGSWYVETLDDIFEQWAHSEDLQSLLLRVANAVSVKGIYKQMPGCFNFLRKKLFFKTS

CPP32 = molecular target: T2, CPP32 (Homo sapiens, UniProt P42574); assay: Granzyme B activation of endogenous proCPP32 and processing of 35S-labeled proMch6 in 697 lymphocyte cell extract (western blot, autoradiography); format: biochemical; conditions: 697 cell extract incubated with granzyme B
T2 construct: endogenous in cells; host or cells: cell extract from 697 lymphocyte cell line
T2 sequence (P42574 29-175 limits assumed): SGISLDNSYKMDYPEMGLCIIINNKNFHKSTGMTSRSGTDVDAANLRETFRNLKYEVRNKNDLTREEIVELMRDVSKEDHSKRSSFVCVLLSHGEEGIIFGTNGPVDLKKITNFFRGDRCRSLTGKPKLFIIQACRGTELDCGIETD
T2 sequence (P42574 176-277 limits assumed): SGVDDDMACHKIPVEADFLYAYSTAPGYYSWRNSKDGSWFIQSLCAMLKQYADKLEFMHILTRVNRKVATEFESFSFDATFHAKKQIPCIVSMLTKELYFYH

Row | SMILES | preference for DEVD-AMC compared to YVAD-AMC, by comparing Vmax/Km (Mch6; Mch6 substrate preference) | Ki (Mch6; Mch6 inhibition by DEVD-CHO peptide) | Ki (Mch6; from hydrolysis rate of 50 μM DEVD-AMC after 30 min preincubation of the enzyme with DEVD-CHO) | processing of CPP32 p20 to p19 in presence of inhibitor (western blot) (CPP32) | proMch6 processing products in presence of inhibitor (autoradiography) (CPP32; 35S-labeled proMch6)
1 | Cc1cc(=O)oc2cc(NC(=O)[C@H](CC(=O)O)NC(=O)[C@@H](NC(=O)[C@H](CCC(=O)O)NC(=O)[C@@H](N)CC(=O)O)C(C)C)ccc12 [DEVD-AMC, Asp-Glu-Val-Asp-aminomethylcoumarin] | greater than 1000 fold | – | – | – | –
2 | CC(C)[C@H](NC(=O)[C@H](CCC(=O)O)NC(=O)[C@@H](N)CC(=O)O)C(=O)N[C@H](C=O)CC(=O)O [DEVD-CHO, Asp-Glu-Val-Asp-aldehyde] | – | < 10 nM | < 10 nM | only the p20 could be detected | only the granzyme B-generated p35 and p12 bands were detected
